Patent US7563595B2 (University of South Florida, priority 2002, dated 2009)
At least one compound was matched to its structure with a doubt left.

Protein sequences, listed by entry. Tags and fused reporters are not part of them. Chains listed by the source or under a name are the forms on record and can include a tag or linker. Residues count along the entry.
UniProt Q05941, 23-502: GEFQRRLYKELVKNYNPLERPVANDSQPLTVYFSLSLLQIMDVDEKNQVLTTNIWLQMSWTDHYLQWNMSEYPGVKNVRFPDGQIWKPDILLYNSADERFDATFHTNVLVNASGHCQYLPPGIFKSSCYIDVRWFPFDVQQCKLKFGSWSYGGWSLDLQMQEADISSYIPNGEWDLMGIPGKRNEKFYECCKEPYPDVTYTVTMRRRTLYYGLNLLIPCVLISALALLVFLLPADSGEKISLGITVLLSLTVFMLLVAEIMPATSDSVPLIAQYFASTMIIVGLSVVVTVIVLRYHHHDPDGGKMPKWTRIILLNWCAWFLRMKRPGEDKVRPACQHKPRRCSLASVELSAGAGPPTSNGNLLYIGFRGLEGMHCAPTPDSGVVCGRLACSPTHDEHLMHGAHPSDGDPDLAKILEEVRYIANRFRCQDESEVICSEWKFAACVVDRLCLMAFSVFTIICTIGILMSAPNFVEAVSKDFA
UniProt Q05941, with tags, fused parts or gaps with the stated changes: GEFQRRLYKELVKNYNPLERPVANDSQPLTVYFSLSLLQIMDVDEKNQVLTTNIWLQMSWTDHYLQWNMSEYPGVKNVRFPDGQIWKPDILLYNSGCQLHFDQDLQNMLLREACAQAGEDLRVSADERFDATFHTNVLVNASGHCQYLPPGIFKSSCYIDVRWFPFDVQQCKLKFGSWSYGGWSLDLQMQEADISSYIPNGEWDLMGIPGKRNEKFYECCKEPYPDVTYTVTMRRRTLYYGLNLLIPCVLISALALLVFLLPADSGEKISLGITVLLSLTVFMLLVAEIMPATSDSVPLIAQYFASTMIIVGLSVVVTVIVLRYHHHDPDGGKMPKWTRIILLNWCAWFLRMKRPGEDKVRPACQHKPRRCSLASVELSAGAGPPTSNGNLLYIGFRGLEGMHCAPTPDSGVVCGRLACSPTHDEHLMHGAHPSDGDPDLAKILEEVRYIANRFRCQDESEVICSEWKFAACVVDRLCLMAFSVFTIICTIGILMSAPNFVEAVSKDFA

Legend:
α7-1-nAChRs = α7-1-nAChRs (Rattus norvegicus, UniProt Q05941); test: Two-electrode voltage-clamp of Xenopus oocytes injected with α7-1 cRNA
α7-2-nAChRs = α7-2-nAChRs (Rattus norvegicus, UniProt Q05941, INS117GCQLHFDQDLQNMLLREACAQAGEDLRVS); test: Two-electrode voltage-clamp of Xenopus oocytes injected with α7-2 cRNA
[1] = ACh at EC50, five similar experiments
[2] = ACh concentration-response, n=5

CC(=O)OCC[N+](C)(C)C [ACh, acetylcholine]
τ of decay (desensitization) of ACh-evoked response (α7-1-nAChRs; 300 μM ACh, 1 s, representative response): 559 ms
time to peak current amplitude (α7-1-nAChRs; 300 μM ACh, 1 s, representative response (FIG. 8D)): 400 ms
time to peak (α7-1-nAChRs; ACh at EC50, 1 s, n=5): 350 ± 65 ms
τ of decay (desensitization) of ACh-evoked response (α7-1-nAChRs; [1]): 609+62 ms
ACh concentration at which maximal activation occurs (α7-1-nAChRs; [2]): 1 mM
Hill coefficient (α7-1-nAChRs; [2]): 1.8
τ of decay (desensitization) of ACh-evoked response (α7-2-nAChRs; 3 μM ACh, 1 s, representative response): 1.52 s
time to peak current amplitude (α7-2-nAChRs; 3 μM ACh, 1 s, representative response (FIG. 8D)): 1.6 ms
time constant (τ) of fast decaying component of ACh-evoked current (α7-2-nAChRs; 1 s and 5 s ACh applications, single exponential (FIG. 8C)): 1.2 s
time to peak (α7-2-nAChRs; ACh at EC50, 1 s, n=5): 1.35 ± 0.13 s
τ of decay (desensitization) of ACh-evoked response (α7-2-nAChRs; [1]): 1.37 ± 0.05 s
ACh concentration at which maximal activation occurs (α7-2-nAChRs; [2]): 10 µM
Hill coefficient (α7-2-nAChRs; [2]): 1.2
